Here are results for 1 compound from patent EP3838286B1, “ANTIMICROBIAL PEPTIDE FROM POLISTES GALLICUS VENOM AND ITS ANALOGS” (Latoxan, priority 2019, dated 2021).

What all share (test): Antitumor / antiproliferative activity (resazurin)
Common to all, as to format: cell-based

In one assay the test system is MDA-MB-231. To be noted: Homo sapiens, breast cancer cells, 5,000 cells/well, 48 h, read-out: IC50 antiproliferative effect MDA-MB-231. The procedure:
(§1) Human cancer cell lines (Mia PaCa-2 (CRL-1420), PC-3 (CRL-1435), MDA-MB-231 (HTB-26)) and normal lung fibrobasts (BEAS-2B (ATCC CRL-9609) and IMR-90 (ATCC CCL-186)) were obtained from American Type Culture Collection (ATCC). HUVEC cells were obtained from Sigma Aldrich and were grown in defined all-in-one ready to use endothelial cell growth medium (Sigma Aldrich). Other cells were cultured in Dulbecco's modified Eagle's medium (DMEM, Gibco Life Technologies) supplemented with 10% heat-inactivated fetal calf serum (FCS, Lonza) at 37 °C in an incubator containing 5% CO2. Cells were sub-cultured in new media every 3-4 days. Antiproliferative / antitumor effects of the peptides were measured as previously described (Borie et al., Eur J Med Chem. 2018;148:306-313). Briefly, cells were detached from growing flask using trypsin, cells were counted and seeded in 96 well-plates in the growth media at an initial cell density of 5000 cells/well. Cells were left for 4 h to attach to the wells. Cells were then treated with increasing concentrations of peptides diluted in culture media. After 48 h incubation at 37 °C in a 5% CO2 incubator, wells were emptied and cell number was evaluated using Resazurin based in vitro toxicity assay kit (from Sigma-Aldrich) following manufacturer's instructions. Briefly, Resazurin stock solution was diluted 1:10 in sterile PBS containing calcium and magnesium (PBS, pH 7.4) and empty wells were filled with 100 µL of the diluted solution. After 4 h incubation at 37 °C, fluorescence intensity was measured using microplate reader (Synergy Mx, Biotek) with an excitation wavelength of 530 nm and an emission wavelength of 590 nm. The fluorescence values were normalized by the controls (buffer treated cells) and expressed as per-cent viability. […]

Another assay deals with MiaPaCa-2. To be noted: Homo sapiens, MIA PaCa-2; pancreas cancer cells; 5,000 cells/well; 48 h; read-out: IC50 antiproliferative effect MiaPaCa-2. The method, then:
as §1

The next assay deals with PC-3. To be noted: Homo sapiens, prostate cancer cells, 5,000 cells/well, 48 h, read-out: IC50 antiproliferative effect PC-3. The method, then:
as §1

With `COc1cc2c(c(OC)c1OC)-c1ccc(OC)c(=O)cc1[C@@H](NC(C)=O)CC2` [Col, colchicine], the half-inhibitory concentration (IC50) in the assay with MDA-MB-231 came to 9.01 nM; in the assay with MiaPaCa-2, 1.52 nM; with PC-3, 0.699 nM.
